In patent US20160046721A1:
Changes are numbered by the printed parent chain. Numbers in names are those of the source. No constants are given. Whether binding was seen depends on the method and setting. Some binding calls cover weakened binding; strength is not graded here. Each block holds one binder with its values, some of them ahead of it.

Protein sequences, listed by entry. Tags and fused reporters are not part of them. Lines headed by an entry give the natural chain unless they say otherwise; changes in a name come on top. Residues count along the entry.
UniProt P03372, residues 302-595: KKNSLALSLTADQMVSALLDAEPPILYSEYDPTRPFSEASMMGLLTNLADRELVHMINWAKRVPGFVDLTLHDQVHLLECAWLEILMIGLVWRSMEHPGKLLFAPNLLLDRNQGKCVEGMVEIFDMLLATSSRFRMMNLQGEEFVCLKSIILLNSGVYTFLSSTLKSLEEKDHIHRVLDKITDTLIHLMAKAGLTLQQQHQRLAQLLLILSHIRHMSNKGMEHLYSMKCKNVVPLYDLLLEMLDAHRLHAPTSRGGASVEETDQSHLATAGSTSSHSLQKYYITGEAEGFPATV

Experiments:
[1] = target: Fc-ER66 (fusion protein of Fc and ER-α66 ligand binding domain) (human) (UniProt P03372); assay: ELISA on coated Fc-ER66, antibody in 5-fold dilutions
[2] = target: Fc-LBD-D27 (Fc-LBD with the C-terminal 27 amino acids deleted) (human) (UniProt P03372); assay: ELISA on coated Fc-LBD-D27, antibody in 5-fold dilutions
[3] = target: Fc-LBD (fusion protein of Fc and ER-α36 ligand binding domain including the C-terminal 27 amino acids) (human); assay: ELISA on coated Fc-LBD, antibody in 5-fold dilutions from 10 ug/ml
[4] = target: T1, GV27 peptide (ER-α36 c-terminal 27 aa) (human); assay: ELISA on the coated 27-aa peptide, antibody in 5-fold dilutions from 10 ug/ml
T1 sequence (peptide): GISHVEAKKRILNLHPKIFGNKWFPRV

[5] = target: T2, biotinylated GV27 peptide (human); assay: competition ELISA: plate coated with SNGmB1 (1 µg/ml), biotinylated GV27 added together with the soluble antibody
T2 sequence (peptide, biotinylated (site not stated)): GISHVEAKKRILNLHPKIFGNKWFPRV

binding [1]: no binding (tested: 10 ug/ml)
binding [2]: no binding (tested: 10 ug/ml)
binding [3]: binds
binding [4]: binds
binding [5]: binds
B1: SNGHZD (C1L + C6H) (antibody, human IgG1, kappa, V domains shown)
VH: QVQLVQSGAEVKKPGASVKVSCKASGYTFTSHNMHWVRQAPGQGLEWIGAIHPVNGDTAYNQKFKGKATLTVDKSTSTAYMELSSLRSEDTAVYYCAREGYGSVDYWGQGTLVTVSS
VL: ETTVTQSPAFMSATPGDKVNISCITSTDIDDDMNWYQQKPGEAPILIISEGNTLRPGIPPRFSSSGYGTDFTLTINNIESEDAAYYFCLQSDNLPLTFGQGTKLEIKR

binding [5]: binds
B2: SNGHZD (C1L + C5H) (antibody, human IgG1, kappa, V domains shown)
VH: B1 VH with M81L
VL: B1 VL

binding [1]: no binding (tested: 10 ug/ml)
binding [2]: no binding (tested: 10 ug/ml)
binding [3]: binds
binding [4]: binds
binding [5]: binds
B3: SNGHZD (C2L + C5H) (antibody, human IgG1, kappa, V domains shown)
VH: B1 VH with M81L
VL: B1 VL with P44A

binding [5]: binds
B4: SNGHZD (C2L + C6H) (antibody, human IgG1, kappa, V domains shown)
VH: B1 VH
VL: B1 VL with P44A
